From PMC10605096 come the findings set out here.

By UniProt entry, the sequences of proteins in these tests, tags left out. Where a name states a change or a piece, a line headed by the entry shows the natural chain unless it says otherwise.
UniProt I1KR32: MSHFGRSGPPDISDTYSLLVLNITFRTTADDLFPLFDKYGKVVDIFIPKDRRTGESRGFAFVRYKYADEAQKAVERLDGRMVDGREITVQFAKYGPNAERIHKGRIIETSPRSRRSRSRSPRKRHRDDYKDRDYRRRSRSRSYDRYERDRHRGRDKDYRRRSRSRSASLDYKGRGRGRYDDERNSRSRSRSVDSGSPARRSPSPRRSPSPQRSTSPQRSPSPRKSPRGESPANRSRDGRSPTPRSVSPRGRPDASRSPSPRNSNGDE
UniProt I1LHR2: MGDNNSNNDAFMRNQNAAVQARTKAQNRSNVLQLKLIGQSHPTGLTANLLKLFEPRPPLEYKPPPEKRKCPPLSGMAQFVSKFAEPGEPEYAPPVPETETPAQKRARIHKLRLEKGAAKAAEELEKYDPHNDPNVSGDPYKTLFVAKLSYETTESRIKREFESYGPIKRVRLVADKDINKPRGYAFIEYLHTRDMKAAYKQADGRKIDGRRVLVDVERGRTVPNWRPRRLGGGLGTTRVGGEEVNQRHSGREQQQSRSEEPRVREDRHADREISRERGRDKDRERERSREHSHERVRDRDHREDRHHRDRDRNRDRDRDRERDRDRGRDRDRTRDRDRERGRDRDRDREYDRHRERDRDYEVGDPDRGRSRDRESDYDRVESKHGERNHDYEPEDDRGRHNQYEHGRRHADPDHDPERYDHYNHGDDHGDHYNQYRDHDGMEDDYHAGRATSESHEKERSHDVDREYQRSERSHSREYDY
UniProt I1L345: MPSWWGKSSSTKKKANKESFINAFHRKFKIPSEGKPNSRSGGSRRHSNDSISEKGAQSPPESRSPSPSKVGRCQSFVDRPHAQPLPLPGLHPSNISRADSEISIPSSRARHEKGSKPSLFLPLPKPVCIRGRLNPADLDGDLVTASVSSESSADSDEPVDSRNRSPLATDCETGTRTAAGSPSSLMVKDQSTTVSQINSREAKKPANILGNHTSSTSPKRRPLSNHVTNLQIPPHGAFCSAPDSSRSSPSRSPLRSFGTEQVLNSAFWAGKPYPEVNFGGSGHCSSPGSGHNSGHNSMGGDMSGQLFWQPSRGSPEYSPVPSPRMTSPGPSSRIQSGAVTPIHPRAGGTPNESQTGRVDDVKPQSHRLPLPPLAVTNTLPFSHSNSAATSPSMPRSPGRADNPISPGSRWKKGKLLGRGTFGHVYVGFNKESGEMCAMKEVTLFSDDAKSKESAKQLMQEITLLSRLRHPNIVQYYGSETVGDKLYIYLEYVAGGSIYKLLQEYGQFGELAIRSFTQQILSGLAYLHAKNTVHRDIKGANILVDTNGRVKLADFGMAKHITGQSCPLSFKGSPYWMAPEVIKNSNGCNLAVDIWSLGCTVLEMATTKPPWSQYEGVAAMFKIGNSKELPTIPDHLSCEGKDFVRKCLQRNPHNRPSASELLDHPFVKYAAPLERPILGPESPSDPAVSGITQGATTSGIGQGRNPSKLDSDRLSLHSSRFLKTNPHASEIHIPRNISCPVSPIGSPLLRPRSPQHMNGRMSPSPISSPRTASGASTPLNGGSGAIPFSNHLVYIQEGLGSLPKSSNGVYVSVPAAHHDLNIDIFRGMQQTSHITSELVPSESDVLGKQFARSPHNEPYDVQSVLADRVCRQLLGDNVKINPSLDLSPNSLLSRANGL
UniProt C6THB4: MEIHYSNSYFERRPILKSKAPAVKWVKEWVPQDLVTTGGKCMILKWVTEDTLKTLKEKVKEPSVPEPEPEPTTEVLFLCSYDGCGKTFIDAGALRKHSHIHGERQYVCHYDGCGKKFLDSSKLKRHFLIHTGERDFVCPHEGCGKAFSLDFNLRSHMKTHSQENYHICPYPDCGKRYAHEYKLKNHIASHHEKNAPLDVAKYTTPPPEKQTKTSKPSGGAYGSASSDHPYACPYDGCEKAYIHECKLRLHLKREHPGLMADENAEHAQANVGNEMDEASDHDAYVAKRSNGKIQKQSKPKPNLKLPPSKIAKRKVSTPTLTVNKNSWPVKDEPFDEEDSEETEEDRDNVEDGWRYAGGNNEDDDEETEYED
UniProt A0A0R0KPC1: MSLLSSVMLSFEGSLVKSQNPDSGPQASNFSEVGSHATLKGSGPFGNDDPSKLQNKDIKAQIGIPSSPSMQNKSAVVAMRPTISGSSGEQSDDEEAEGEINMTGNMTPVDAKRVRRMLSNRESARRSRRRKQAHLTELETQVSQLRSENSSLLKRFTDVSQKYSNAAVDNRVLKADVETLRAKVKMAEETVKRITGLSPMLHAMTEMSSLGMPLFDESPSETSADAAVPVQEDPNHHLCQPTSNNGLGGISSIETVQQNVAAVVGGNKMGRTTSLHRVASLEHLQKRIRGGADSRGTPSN

Assay [1] deals with GmSIT4 (BD fusion for Y2H) (Glycine max (soybean)) (UniProt K7LBE9). Nature of the assay: two-hybrid; bait in pGBKT7 (BD-K/Ps), prey in pGADT7 (AD-interacting proteins), co-transformed into Y2H gold yeast; growth on selective media for 5-8 days at 28 °C.
Assay [2] addresses GmSIT4 (cLUC fusion for split-LUC) (Glycine max (soybean)) (UniProt K7LBE9). Put plainly: split reporter; split-LUC complementation: cLUC-K/Ps and nLUC-interacting proteins co-infiltrated by Agrobacterium GV3101 into 4-week-old tobacco leaves; LUC signals observed after 48 h.
The target in assay [3] is GmPRP4KA (BD fusion for Y2H) (Glycine max (soybean)). Put plainly: two-hybrid; bait in pGBKT7 (BD-K/Ps), prey in pGADT7 (AD-interacting proteins), co-transformed into Y2H gold yeast; growth on selective media for 5-8 days at 28 °C.
The target of assay [4] is GmPRP4KA (cLUC fusion for split-LUC) (Glycine max (soybean)). Nature of the assay: split reporter; split-LUC complementation: cLUC-K/Ps and nLUC-interacting proteins co-infiltrated by Agrobacterium GV3101 into 4-week-old tobacco leaves; LUC signals observed after 48 h.
For assay [5], the target named is GmMPK9 (BD fusion for Y2H) (Glycine max (soybean)). Put plainly: two-hybrid; bait in pGBKT7 (BD-K/Ps), prey in pGADT7 (AD-interacting proteins), co-transformed into Y2H gold yeast; growth on selective media for 5-8 days at 28 °C.
The target of assay [6] is GmMPK9 (cLUC fusion for split-LUC) (Glycine max (soybean)). Nature of the assay: split reporter; split-LUC complementation: cLUC-K/Ps and nLUC-interacting proteins co-infiltrated by Agrobacterium GV3101 into 4-week-old tobacco leaves; LUC signals observed after 48 h.
Assay [7] has as its target GmSnRK1β (BD fusion for Y2H) (Glycine max (soybean)). Put plainly: two-hybrid; bait in pGBKT7 (BD-K/Ps), prey in pGADT7 (AD-interacting proteins), co-transformed into Y2H gold yeast; growth on selective media for 5-8 days at 28 °C.
Assay [8] addresses GmSnRK1β (cLUC fusion for split-LUC) (Glycine max (soybean)). Nature of the assay: split reporter; split-LUC complementation: cLUC-K/Ps and nLUC-interacting proteins co-infiltrated by Agrobacterium GV3101 into 4-week-old tobacco leaves; LUC signals observed after 48 h.

These are yes or no findings as the source states them, for the method shown. Binding calls can cover weak binding; strength is not graded here. For part of these data: In cells and extracts the contact can be indirect.

In the case of “GmNUC-L2 (AD fusion for Y2H) (from UniProt I1LPJ9)”, in assay [1], the binding result is “binds”.

For the substance “GmNUC-L2 (nLUC fusion for split-LUC) (from UniProt I1LPJ9)”, in assay [2], the binding entry is recorded as “binds”.

Regarding “GmSC35 (AD fusion for Y2H) (from UniProt I1KR32)”, the binding result in assay [3] was “binds”.

Take “GmSC35 (nLUC fusion for split-LUC) (from UniProt I1KR32)”: the binding entry in assay [4] is “binds”.

Take “GmU1-70K (AD fusion for Y2H) (from UniProt I1LHR2)”: the binding result in assay [3] is given as “binds”.

Turning to “GmU1-70K (nLUC fusion for split-LUC) (from UniProt I1LHR2)”, the binding entry in assay [4] is “binds”.

Regarding “GmYODA (AD fusion for Y2H) (from UniProt I1L345) (enzyme)”, the binding entry in assay [5] is on record as “binds”.

Turning to “GmYODA (nLUC fusion for split-LUC) (from UniProt I1L345) (enzyme)”, in assay [6], the binding entry is “binds”.

In the case of “GmYY1 (AD fusion for Y2H) (from UniProt C6THB4)”, the binding entry in assay [5] is on record as “binds”.

In the case of “GmYY1 (nLUC fusion for split-LUC) (from UniProt C6THB4)”, in assay [6], the binding entry is “binds”.

“GmbZIP63 (AD fusion for Y2H) (from UniProt A0A0R0KPC1)”: the binding entry in assay [7] is “binds”.

Regarding “GmbZIP63 (nLUC fusion for split-LUC) (from UniProt A0A0R0KPC1)”, the binding result in assay [8] was “binds”.
